# Laboratory results as given in PubChem BioAssay AID1347076 (National Center for Advancing Translational Sciences (NCATS), 2019).
# The whole screen tested about 400,000 compounds, of which about 13,000 (3.2%) were called active. This list was built around the results that the source calls inconclusive (neither active nor inactive); the mix of calls is not that of the screen. The call rests on the fitted dose curve; in most records, active means well fitted cell-killing curve with a large enough effect; inconclusive means small, poorly fitted or top-dose-only effect, or effect the other way; inactive means flat fitted curve, though single readings scatter. Where the call is inconclusive, the potency comes from a doubtful curve fit.
# Experiment: qHTS assay for MDR1-selective chemotherapeutics: Primary screen using the drug-selected MDR subline cells KB-V1; further: nearly all actives have a fitted effect of over 60% in size
# Conditions: KB-V1 MDR cells viability, CellTiter-Glo, 72 h; activity change, negative = cytotoxicity: at 46.1 µM (top of the series)
# Outline: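 KB-V1, DMEM (no phenol red) + 10% FBS; cpd pin-transferred, titration series; 72 h, 37 degrees C; CellTiter-Glo, luminescence. Data normalized, curve-fit.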
# On the % scale 0 is the no-effect control and ±100 the full control effect; potency means the concentration at half of the fitted maximal effect.
SMILES,Potency,"activity change, negative = cytotoxicity"
O=C(CCCN1C(=O)/C(=C/c2ccccc2Cl)SC1=S)NNC(=O)c1ccccc1,"inconclusive: 29.1 µM [cytotoxic, single point]",
CCN(CC)c1ccc(/C=N/NC(=O)Cc2cccs2)cc1,,inactive: -27.6%
CC1CCN(C(=O)c2ccc(NS(=O)(=O)c3ccccc3)cc2)CC1,"inconclusive: 20.6 µM [cytotoxic, single point]",
O=C(c1ccc(-c2ccc([N+](=O)[O-])cc2)o1)N1CCCCCCC1,,inactive: -13.2%
Cc1[nH]c2ccccc2c1/C=C/c1c[nH]c2ccccc12,,inactive: 26.4%
O=C(NCc1ccccc1)C1=C[C@@H](c2csc3ccccc23)C[C@@H](OCc2ccc(CO)cc2)O1,active: 20.6 µM,
Cc1cc(Br)ccc1NC(=O)c1c(C)oc2ncnc(N3CCCCC3)c12,,inactive: -6.87%
Cc1cccc(-c2nnc(SCc3ccc(C#N)cc3)n2Cc2ccco2)c1,"inconclusive: 5.8 µM [cytotoxic, full curve]",
COc1ccccc1NC(=O)Cn1c(=O)n(CC2CCC(C(=O)NCCc3ccccc3)CC2)c(=O)c2ccccc21 (centres undefined),,inactive: 2.84%
COc1ccc(OC)c2c(C)cc(N3CCCCCC3)nc12,"inconclusive: 14.6 µM [cytotoxic, partial curve, poor fit]",
CC(=O)Nc1ccc(S(=O)(=O)N(C)c2ccccc2)cc1,"inconclusive: 23.1 µM [cytotoxic, single point]",
CCC(=O)N(C(=O)CC)N1CCN(c2ccncc2S(=O)(=O)N2CCCCC2)CC1,,inactive: -23.1%
CCNc1nc2c(c(=O)n(C)c(=O)n2C)n1CCCc1ccccc1,"inconclusive: 20.6 µM [cytotoxic, single point]",
CCOC(=O)N1CCc2c(sc3c2C(=O)NC(c2ccc(C(=O)OC)cc2)N3)C1 (centres undefined),,inactive: 4.56%
Cc1nnc(SCC(=O)Nc2ccc(N(C)C)cc2)[nH]c1=O,,inactive: -0.0167%
Cc1ccc(-c2nc3ccccn3c2C=O)cc1,"inconclusive: 25.9 µM [cytotoxic, single point]",
COCCNC(=O)CN1C(=O)COc2ccc(S(=O)(=O)N3CCCC3)cc21,,inactive: 5.07%
CC(C)Oc1cccc(C(=O)C2CCCN(Cc3cccn3-c3ccccn3)C2)c1 (centres undefined),"inconclusive: 7.31 µM [cytotoxic, partial curve, poor fit]",
C=CCNc1nc(NCCOC)c2sc(-c3ccccc3)cc2n1,"inconclusive: 2.91 µM [cytotoxic, full curve, poor fit]",
O=C(NCCC1=CCCCC1)c1cccc(S(=O)(=O)N2CCCCC2)c1,"inconclusive: 7.31 µM [cytotoxic, partial curve]",
CCC(C)NC(=O)c1ccccc1NC(=O)COc1ccc(OC)cc1 (centres undefined),"inconclusive: 23.1 µM [cytotoxic, partial curve]",
C[C@@H]1CCCCO[C@H](CN(C)Cc2ccc(C(F)(F)F)cc2)[C@@H](C)CN([C@H](C)CO)C(=O)c2cc(NS(=O)(=O)c3cn(C)cn3)ccc2O1,"inconclusive: 14.6 µM [rising, partial curve]",
COc1ccccc1NS(=O)(=O)c1cccc(C(=O)N2CCN(Cc3ccc4c(c3)OCO4)CC2)c1,"inconclusive: 10.3 µM [cytotoxic, partial curve, poor fit]",

SMILES,Potency,"activity change, negative = cytotoxicity"
COc1cccc(NC(=O)C(=O)NCC(c2ccco2)N2CCc3ccccc3C2)c1 (centres undefined),"inconclusive: 7.31 µM [cytotoxic, partial curve, poor fit]",
Cc1[nH]nc2oc(=O)c(CCO)c(C)c12,,inactive: 7.94%
COc1ccc(C)cc1NC(=S)N1CCN(c2ncccn2)CC1,,inactive: -13.7%
CN(C)c1ccc(/C=N/NC(=O)c2ccc(CN3CCOCC3)cc2)cc1Br,"inconclusive: 2.91 µM [cytotoxic, partial curve, poor fit]",
Clc1ccc(C2=NCCn3nc4ccccc4c32)cc1,"inconclusive: 29.1 µM [cytotoxic, single point]",
O[C@@H]1CN(Cc2cccs2)[C@@H](c2ccc(Cl)cc2)C[C@H]1n1cc(C2CC2)nn1,"inconclusive: 25.9 µM [cytotoxic, partial curve, poor fit]",
COc1ccc(OC)c(N=c2oc3cc(O)ccc3cc2C(N)=O)c1,"inconclusive: 20.6 µM [cytotoxic, single point]",
Cc1ccc(S(=O)(=O)N(Cc2ccc(Cl)cc2)c2ccccc2C(=O)NCc2ccco2)cc1,active: 18.4 µM,
Clc1cc(Br)ccc1OCCN1CCOCC1,"inconclusive: 29.1 µM [cytotoxic, single point]",
COc1cccc(/C=C/C(=O)c2ccc[nH]2)c1,"inconclusive: 13 µM [cytotoxic, partial curve, poor fit]",
CC1CC(C)CN(CCCNC(=O)CN2C(=O)COc3ccc(S(=O)(=O)N4CCOCC4)cc32)C1 (centres undefined),"inconclusive: 32.6 µM [rising, single point]",
CCOc1ccc(S(=O)(=O)N2CCCCC2)cc1NC(=O)C1CCCC1,"inconclusive: 18.4 µM [cytotoxic, single point]",
O=C(OC(C(=O)NC1CCCCC1)c1ccccc1F)c1ccco1 (centres undefined),,inactive: 5.98%
CCC(c1nnc(SCC(=O)NCCc2ccc(Cl)cc2Cl)o1)N(C)C (centres undefined),"inconclusive: 10.3 µM [cytotoxic, partial curve, poor fit]",
C[C@@H]1CN([C@H](C)CO)C(=O)c2cc(-c3ccccc3)cnc2O[C@@H]1CN(C)C(=O)C1CCOCC1,,inactive: 12.4%
COc1cccc(NC(=O)Cn2c(-c3nonc3N)nc3ccccc32)c1,"inconclusive: 18.4 µM [rising, single point]",
Cc1cccc(C)c1Nc1c(-c2ccsc2)nc2cccc(C)n12,,inactive: -5.38%
O=C(NC1CCN(Cc2ccccc2)C1)c1cc(COc2ccc(F)cc2F)on1 (centres undefined),"inconclusive: 29.1 µM [cytotoxic, partial curve, poor fit]",
COc1cc2c(cc1OC)C(c1ccccc1[N+](=O)[O-])=NCC2,,inactive: -22.3%
Cc1ccccc1OCCn1cc(/C(N)=N/O)c2ccccc21,"inconclusive: 20.6 µM [cytotoxic, single point]",
CCOc1ccc(-c2n[nH]c(C)c2Oc2ccc(OC)cc2)c(O)c1,,inactive: -25%
O=C(N/N=C/c1ccc(Br)cc1)c1ccccc1-n1cccc1,active: 14.6 µM,
Cc1c(C=O)c2ccccn2c1C(=O)c1ccccc1,"inconclusive: 32.6 µM [cytotoxic, single point]",

# Compounds listed so far containing a nitro group on carbon:
SMILES,Potency,"activity change, negative = cytotoxicity"
O=C(c1ccc(-c2ccc([N+](=O)[O-])cc2)o1)N1CCCCCCC1,,inactive: -13.2%
COc1cc2c(cc1OC)C(c1ccccc1[N+](=O)[O-])=NCC2,,inactive: -22.3%

# Going on with the list.

SMILES,Potency,"activity change, negative = cytotoxicity"
CC1CCCCN1C(=O)C(=O)c1cn(CC(=O)N2CCCCCC2)c2ccccc12 (centres undefined),,inactive: -5.59%
COc1ccc(C(=O)Sc2ccc(Cl)cc2)cc1OC,,inactive: 3.17%
N#Cc1c(C#N)c(SSc2c(C#N)c(C#N)c(N)n2-c2ccccc2)n(-c2ccccc2)c1N,"inconclusive: 20.6 µM [cytotoxic, single point]",
C=CCn1c(SCC(=O)Nc2cc(C)nn2-c2ccccc2)nnc1C1CCCCC1,active: 5.8 µM,
COc1ccccc1CNC(=O)CCCCn1c(=O)c2ccccc2n(CC(=O)Nc2cccc(Cl)c2)c1=O,"inconclusive: 8.2 µM [rising, partial curve, poor fit]",
Cc1noc(C)c1NC(=O)N(C)C[C@H]1Oc2ccc(NC(=O)c3ccncc3)cc2C(=O)N([C@H](C)CO)C[C@@H]1C,"inconclusive: 0.82 µM [rising, full curve, poor fit]",
O=C(CCNC(=O)C1CCN(S(=O)(=O)c2ccccc2)CC1)NCc1ccccn1,,inconclusive: -22.4%
CCCCOn1c(C)c(C(=O)OCC)c2c3nonc3ccc21,active: 8.2 µM,
Oc1ccc(C[C@H]2CNC(=S)N2CC2CCCN2C[C@H](Cc2ccc(O)cc2)N2C[C@H](Cc3ccccc3)N(CC3CCCCCC3)C2=S)cc1 (some centres undefined),,inactive: -24.6%
O=C1/C(=C/c2ccccc2Cl)SC(=S)N1CCCC(=O)N(CCO)c1ccccc1,"inconclusive: 29.1 µM [cytotoxic, single point]",
c1ccc(NC(=NCc2ccco2)c2ccccc2)cc1,"inconclusive: 18.4 µM [cytotoxic, single point]",
O=C(c1ccc2nc(-c3ccco3)c(-c3ccco3)nc2c1)N1CCN(c2ccccc2)CC1,active: 23.1 µM,
COc1ccc(-c2csc(Nc3cc(C)ccn3)n2)cc1OC,,inactive: -14.4%
O=S(=O)(c1ccc(Cl)cc1)N1CCN(c2ccccn2)CC1,"inconclusive: 20.6 µM [cytotoxic, single point]",
Cc1nn(CC(=O)NCc2ccccc2)c(=O)c2ccccc12,"inconclusive: 14.6 µM [cytotoxic, partial curve]",
CCCCn1c(SCC(=O)NC(=O)Cc2ccccc2)nc2ccccc2c1=O,,inactive: 17%
O=C(NNC(=O)C1CCN(C(=O)Nc2ccccc2)CC1)c1ccc(F)cc1,"inconclusive: 9.2 µM [rising, partial curve]",
Cc1ccnc2nc(C(=O)OCC(=O)NCCc3ccccc3)nn12,,inactive: -9.37%
CCOc1ccc(N(CC(=O)NCc2cccc(OC)c2)S(=O)(=O)c2c(C)noc2C)cc1,active: 7.31 µM,
COc1cc(NC(=O)c2nc3ccccc3n(C)c2=O)cc(OC)c1OC,"inconclusive: 29.1 µM [cytotoxic, single point]",
Cc1ccc(S(=O)(=O)Nc2c(C)n(C)n(-c3ccccc3)c2=O)cc1C(=O)OCC(=O)N1CCCC(C)C1 (centres undefined),"inconclusive: 18.4 µM [rising, single point]",
O=C(CCCNS(=O)(=O)c1cccs1)N1CCN(c2ccc(F)cc2)CC1,"inconclusive: 29.1 µM [cytotoxic, single point]",
Cn1c(CN2CCCC2)nc2cc(NC(=O)c3ccc(Cl)cc3)ccc21,"inconclusive: 9.2 µM [cytotoxic, partial curve]",

# At a glance, some entries already given:
SMILES,Potency,"activity change, negative = cytotoxicity"
CCCCOn1c(C)c(C(=O)OCC)c2c3nonc3ccc21,active: 8.2 µM,
Oc1ccc(C[C@H]2CNC(=S)N2CC2CCCN2C[C@H](Cc2ccc(O)cc2)N2C[C@H](Cc3ccccc3)N(CC3CCCCCC3)C2=S)cc1 (some centres undefined),,inactive: -24.6%
O=C1/C(=C/c2ccccc2Cl)SC(=S)N1CCCC(=O)N(CCO)c1ccccc1,"inconclusive: 29.1 µM [cytotoxic, single point]",
